Measurements as given in the supplement of paper PMC3334620.
Over roughly 33,000 sequences, “E-score (-0.5 to 0.5)” has its median near -0.0059; the highest 2% begin near 0.26. The list shows a part of the results.

What follows are sequences tested against T1, Cin5 (UniProt P40917) (assay: PBM E-score (8-mer binding enrichment) (E-score (-0.5 to 0.5)); higher = stronger / more preferred TF binding). Conditions: protein concentration: 100 nM; construct: GST-full length.
T1 sequence: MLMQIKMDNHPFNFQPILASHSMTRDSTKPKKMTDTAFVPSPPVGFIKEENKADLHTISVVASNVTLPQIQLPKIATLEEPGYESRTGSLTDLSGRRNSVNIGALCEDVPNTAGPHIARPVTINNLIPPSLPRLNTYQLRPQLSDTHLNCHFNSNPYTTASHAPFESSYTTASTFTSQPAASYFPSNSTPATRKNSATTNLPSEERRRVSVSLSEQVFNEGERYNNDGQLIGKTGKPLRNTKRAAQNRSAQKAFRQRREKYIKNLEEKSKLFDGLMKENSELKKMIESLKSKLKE
Method in brief: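 E-scores (a modified Wilcoxon-Mann-Whitney statistic) were assigned by the Universal PBM Analysis Suite to every ungapped eight-base word pooled with its reverse complement. The input came from universal all-10-mer Agilent arrays made double-stranded by primer extension and probed with GST-tagged yeast transcription factors at about 100-200 nM. Fluorescent anti-GST detected bound protein, and masliner normalised the scans.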

Row | Sequence | PBM E-score
1 | AAGGAGCT | -0.271
2 | AATGGAAC | 0.103
3 | AAGAATAG | 0.0681
4 | ACCAGAGC | -0.0046
5 | AACTCAAG | -0.0342
6 | AGTTGGTA | 0.18
7 | ACTTGGCG | -0.0901
8 | GCGACCCC | -0.283
9 | CGAAAGCG | -0.206
10 | AGGGCTCC | -0.351
11 | GGGACATA | 0.0818
12 | ATCTCATG | 0.155
13 | CCTTGTCG | -0.0982
14 | CGTCGTAC | -0.00206
15 | ACTGGAGC | -0.253
16 | GGCACGAA | 0.0353
17 | AATTAAGT | 0.134
18 | CAGATCTG | 0.0178
19 | CGACAAAC | -0.0642
20 | AATTCAGA | 0.00727
21 | TGACCTCA | -0.0132
22 | CACGGGGG | -0.401
23 | CTTGGCAA | -0.22
24 | GGAGTACA | -0.0949
25 | CAATGCTG | -0.0255

Row | Sequence | PBM E-score
26 | GGAATTCA | 0.175
27 | ACAAAACT | 0.155
28 | CAAAAGCG | -0.0222
29 | AATCTAGG | 0.0824
30 | ACAGTGTG | -0.00966
31 | AGCGTGTA | -0.0888
32 | CCAAAAGG | -0.274
33 | GTTGATCA | 0.152
34 | GAATAGAC | -0.04
35 | ACTGATGA | 0.128
36 | GAAACCGA | -0.0178
37 | GTGGGTGA | 0.0437
38 | ACATAATA | 0.364
39 | CCTCAATC | -0.018
40 | CCAGCAGA | -0.0643
41 | CTGCAAGC | -0.23
42 | CATCGGAG | -0.229
43 | CTGATCAA | 0.0587
44 | GTCTGCCA | -0.228
45 | AATCTGCC | 0.0186
46 | ACGAAACA | 0.0947
47 | ACTGGCCA | 0.08
48 | GTCTCCGA | -0.0909
49 | AAATTAAA | 0.214
50 | GCATCAGA | 0.102

Copied from the list:
GAAACCGA | PBM E-score: -0.0178
GTCTCCGA | PBM E-score: -0.0909
ACTGATGA | PBM E-score: 0.128
GCATCAGA | PBM E-score: 0.102
ACAGTGTG | PBM E-score: -0.00966

(further entries)

Row | Sequence | PBM E-score
51 | AACGTCTT | -0.0374
52 | GTACCCTA | 0.0342
53 | TATGTGCA | 0.0166
54 | CGCTGACG | 0.094
55 | TATAAACA | 0.147
56 | GCCGCTCC | -0.305
57 | ACACCTGT | -0.0983
58 | CAGTTTGA | 0.1
59 | CGCTGCAA | -0.0268
60 | AAGGCGCT | -0.0988
61 | AATTCTCT | -0.0757
62 | GTCACAAA | -0.0564
63 | CCCCGGAG | -0.131
64 | GATAATTA | 0.218
65 | CACTGACG | -0.238
66 | CGCTCAAA | 0.00888
67 | CCGTTCTC | -0.0505
68 | CGCAGCCG | -0.234
69 | AAATAGGA | 0.162
70 | AGAGGGTA | -0.0977
71 | AACTGCTG | -0.0415
72 | AGTGTACG | -0.109
73 | AGCTACCG | -0.163
74 | ATCCAATA | 0.243
75 | CGTTAGCC | 0.0733

Row | Sequence | PBM E-score
76 | TAAGCGGA | 0.197
77 | CCCAACCC | 0.0517
78 | CAGAACTA | 0.0448
79 | ACGCCACT | 0.0178
80 | GATTGTGA | 0.0821
81 | GACAGCTC | -0.237
82 | GTTGAGCA | 0.0818
83 | GAAAGGAC | 0.0119
84 | CGAAGCGC | -0.0599
85 | TACTCTCA | 0.0302
86 | CCGAGCCC | -0.273
87 | CGCCGGTC | -0.196
88 | ATAGTTAA | 0.103
89 | AAAATTGA | 0.056
90 | AGTTTGCC | 0.146
91 | CCCTACCA | -0.115
92 | CTACTGTA | 0.12
93 | TGGTCTAA | -0.153
94 | GACAGGCC | -0.0725
95 | GCGGCAGA | -0.189
96 | CGAAAGGC | -0.122
97 | ATCTAACC | 0.137
98 | AGAGGACA | -0.0578
99 | GTGTCATA | 0.0816
100 | CGAAGGCG | 0.0157

Row | Sequence | PBM E-score
101 | AGTTCGCA | 0.0133
102 | ATCGCGAC | 0.0499
103 | AACCGCAT | 0.115
104 | CCCAACGG | -0.0607
105 | CCTGAGAG | -0.221
106 | AAGCCACC | -0.287
107 | ACCCGTTC | 0.155
108 | AATTGGCT | 0.193
109 | ACTAAACT | 0.1
110 | CGTTTAAC | 0.0292
111 | CGAGCTAG | 0.124
112 | ATGACAAA | 0.226
113 | CTACGGAA | 0.0346
114 | AACTTGAC | 0.171
115 | GCGCCGAC | -0.227
116 | CCCTGCAC | -0.14
117 | GCATTAGA | -0.0233
118 | ATAAATCA | 0.185
119 | AGTGGAGC | -0.0806
120 | TATGCCAA | -0.0278
121 | CCGGTGAA | 0.0284
122 | AGGTGGCA | -0.0179
123 | CGGAGCTA | -0.131
124 | AGGGAGTC | -0.234
125 | AAGGTCGT | -0.00655

Row | Sequence | PBM E-score
126 | AAAGCCTC | -0.109
127 | GGATACCA | -0.0155
128 | GAGAGTAC | -0.134
129 | GATACCGA | -0.112
130 | CAGTAACG | -0.0731
131 | TACCTCGA | -0.0145
132 | AACACAGT | 0.12
133 | TCCCATAA | 0.0854
134 | CGTTCAAG | -0.0617
135 | GGGCTGGA | -0.2
136 | ACAGTGGC | -0.0208
137 | GCAGAGGA | -0.116
138 | CATCTACG | 0.137
139 | AAGAGATC | -0.103
140 | AGCCCCAC | -0.0333
141 | AAACTCGC | 0.0546
142 | CCACTTAA | 0.0597
143 | CCGCTTCC | -0.0726
144 | ACAGTTGC | -0.00566
145 | ATTTACCA | 0.0393
146 | AGGTGCTC | -0.369
147 | GGGGAGCA | -0.281
148 | CTGCAAAG | -0.162
149 | AACCGGAG | -0.0396
150 | GCCGCCAC | -0.287

2 records picked at random from the list so far, as already listed:
Row | Sequence | PBM E-score
149 | AACCGGAG | -0.0396
139 | AAGAGATC | -0.103

(continued)

Row | Sequence | PBM E-score
151 | CGGTAATC | -0.0552
152 | CTATCCTA | -0.111
153 | CTCCACAC | -0.0294
154 | ATGGTTAG | 0.165
155 | GCAAATCC | 0.0128
156 | AGCATCCA | -0.111
157 | CAGCTAAG | -0.252
158 | ACAACGTG | 0.00786
159 | CTGAAGTA | 0.0817
160 | GGCTAGAC | -0.232
161 | CGGCAACG | -0.233
162 | CTGCTTAA | 0.00628
163 | CCAGTTAG | 0.116
164 | CTGCCCAG | -0.249
165 | CCACCGCC | 0.00825
166 | GAGACTCA | -0.0361
167 | ATTTGGCA | 0.00273
168 | CCATTGCA | -0.0214
169 | ACTTACTG | 0.0622
170 | CCGTAGCC | -0.239
171 | ACCGACCG | -0.0565
172 | AGTTCTAC | -0.141
